In one assay the target is tagged PAX6 (UniProt P63016). In words: co-IP; HEK293T cells transfected with tagged RNF8 and tagged PAX6; immunoprecipitation of each in turn, immunoblot of the other. (Immunoblotting shows a protein as a band on a membrane.)
For assay [1], the target named is Paired Box 6 (PAX6) (rat (endogenous in cultured NSCs)) (UniProt P63016). Description: co-IP; endogenous proteins in lysates of cultured rat NSCs (undifferentiated and after induction of differentiation, 0 h and 24 h for RNF8); antibody against the bait, Western blot of the partner; Pierce Co-IP kit, 4 °C overnight.

The chains behind the UniProt entries cited, without tags or fusion partners.
UniProt P63016: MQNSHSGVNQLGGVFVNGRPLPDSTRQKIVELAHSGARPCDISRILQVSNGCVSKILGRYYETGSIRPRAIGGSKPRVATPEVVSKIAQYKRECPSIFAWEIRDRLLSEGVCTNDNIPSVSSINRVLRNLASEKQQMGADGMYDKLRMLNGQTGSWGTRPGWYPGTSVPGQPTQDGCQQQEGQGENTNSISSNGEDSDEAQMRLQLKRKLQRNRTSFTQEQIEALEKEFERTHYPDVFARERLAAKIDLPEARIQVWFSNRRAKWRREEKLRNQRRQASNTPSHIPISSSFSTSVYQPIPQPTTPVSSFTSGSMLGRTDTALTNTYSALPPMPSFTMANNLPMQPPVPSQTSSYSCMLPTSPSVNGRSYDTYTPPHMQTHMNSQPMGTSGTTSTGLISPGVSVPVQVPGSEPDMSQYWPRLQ

Results are given in words; binding and its absence hold for the method and conditions named. In cells and extracts the contact can be indirect. Some binding calls cover weakened binding; strength is not graded here. For part of these data: Sequences can lack the tags named with a protein.

B1: tagged RNF8 (enzyme, UniProt Q4KLN8 1-487)
chain: MGEPDPLVSGQLAARRSWCLRRLGMDREWLQLEAGSEVTIGRGFSVTYQLISKVCPLMISRNHCVLKQNPEGQWTIMDNKSLNGVWLNRERLAPLQGYCIRKGDHIQLGVPLESKEHAEYEYEVIEEDRESLAPCLAPKNDHTTEKHKGLRTKRKFSSDGVESLPAEGPSDLRCPLAKGSSKPAEPEKLHGKGEAASQPLGCLCPTLASLEASERTAGPHACSTLPKVLELYPKKQKACSPSASQSSLELFKMTMSRMLKLKTQMQEKQIAVLNVKRQARKGSSKKVVRMEKELRDLQSQLYAEQAQQQARVEQLEKTFQEEEQHLQGLEKEQGECDLKQQLLQALQEHRALMEELDRSKKDFEKIIQAKNKELERTKEEKDKVQAQKEEVLSHMNDVLENELQCIICSEYFIEAVTLNCAHSFCSFCISEWMKRKVECPICRKDIESRTNSLVLDNCISKMVERLSSDVKERRSVLIRERRAKRLL
Consider B1, for which the binding result with tagged PAX6 was “binds”.

B2: ring finger protein 8 (RNF8) (enzyme, UniProt Q4KLN8 1-487)
chain: B1 chain
In the case of B2, the binding result in assay [1] is given as “binds”.

B3: Lysine acetyltransferase 2A (KAT2A) (enzyme, UniProt D4ACX5 1-833)
chain: MAEPSQAPNPAPAAQPRPLQSPAPAPTSTPAPSPASAPTPAPTPAPAPAPAAAPAGSTGTGGAGVGSGGDPARPGLSQQQRASQRKAQVRGLPRAKKLEKLGVFSACKANETCKCNGWKNPKPPTAPRMDLQQPAANLSELCRSCEHPLADHVSHLENVSEDEINRLLGMVVDVENLFMSVHKEEDTDTKQVYFYLFKLLRKCILQMTRPVVEGSLGSPPFEKPNIEQGVLNFVQYKFSHLAPRERQTMFELSKMFLLCLNYWKLETPAQFRQRSQSEDVATYKVNYTRWLCYCHVPQSCDSLPRYETTHVFGRSLLRSIFTVTRRQLLEKFRVEKDKLVPEKRTLILTHFPKFLSMLEEEIYGANSPIWESGFTMPPSEGTQLVPRPATVSATVVPSTPIFSPSMGGGSNSSLSLDSTGTEPMPAGEKRKLPENLTLEDAKRLRVMGDIPMELVNEVMLTITDPAAMLGPETSLLSANAARDETARLEERRGIIEFHVIGNSLTPKANRRVLLWLVGLQNVFSHQLPRMPKEYIARLVFDPKHKTLALIKDGRVIGGICFRMFPTQGFTEIVFCAVTSNEQVKGYGTHLMNHLKEYHIKHSILYFLTYADEYAIGYFKKQGFSKDIKVPKSRYLGYIKDYEGATLMECELNPRIPYTELSHIIKKQKEIIKKLIERKQAQIRKVYPGLSCFKEGVRQIPVESVPGIRETGWKPLGKEKGKELKDPDQLYTTLKNLLAQIKSHPSAWPFMEPVKKSEAPDYYEVIRFPIDLKTMTERLRSRYYVTRKLFVADLQRVIANCREYNPPDSEYCRCASALEKFFYFKLKEGGLIDK
For the molecule B3, in assay [1], the binding result is listed as “binds”.
